Assay [1] addresses Sirtuin 6 (SIRT6), endogenous in mouse vascular smooth muscle cells (mouse (endogenous in VSMCs from mouse aortas)) (UniProt P59941). The experiment in a line: co-IP; VSMC lysates (IP lysis buffer) immunoprecipitated with anti-SIRT6 or IgG at 4 °C overnight, protein A/G magnetic beads; western blot with anti-LKB1 and anti-SIRT6.
Assay [2] deals with HA-tagged SIRT6 (UniProt P59941). As to the kind of experiment: co-IP; HEK 293T cells transfected with Flag-tagged LKB1 and HA-tagged SIRT6; lysates immunoprecipitated with IgG and anti-Flag or anti-HA at 4 °C overnight, protein A/G magnetic beads; western blot with anti-HA and anti-Flag.
Assay [3] addresses GST-SIRT6 (UniProt P59941). As to the kind of experiment: pull-down; GST or GST-SIRT6 (1 μg)-conjugated GSH beads in NETN buffer (20 mM Tris-HCl pH 8.0, 100 mM NaCl, 1 mM EDTA, 0.5% NP40); purified His-LKB1 (1 μg) added, overnight at 4 °C, three washes; western blot with anti-His and anti-GST; both purified.

Protein sequences, listed by entry. Tags and fused reporters are not part of them.
UniProt P59941: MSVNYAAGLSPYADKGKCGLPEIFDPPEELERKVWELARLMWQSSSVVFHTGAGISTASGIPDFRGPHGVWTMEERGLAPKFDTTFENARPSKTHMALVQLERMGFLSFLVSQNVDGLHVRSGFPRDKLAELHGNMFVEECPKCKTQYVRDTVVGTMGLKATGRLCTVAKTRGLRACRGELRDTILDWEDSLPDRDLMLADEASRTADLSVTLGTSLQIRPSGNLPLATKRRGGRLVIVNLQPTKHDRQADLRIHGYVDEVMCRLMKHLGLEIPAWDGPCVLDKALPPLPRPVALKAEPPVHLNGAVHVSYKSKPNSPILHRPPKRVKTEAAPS

Results are given in words; binding and its absence hold for the method and conditions named. For part of these data: Binding seen in cells or lysates may run through a third protein. Some binding calls cover weakened binding; strength is not graded here. For part of these data: Where a sequence is shown, tags or fusion partners need not be part of it.

B1: Liver kinase B1 (LKB1), endogenous in mouse vascular smooth muscle cells (enzyme, UniProt Q9WTK7 1-436)
chain: MDVADPEPLGLFSEGELMSVGMDTFIHRIDSTEVIYQPRRKRAKLIGKYLMGDLLGEGSYGKVKEVLDSETLCRRAVKILKKKKLRRIPNGEANVKKEIQLLRRLRHRNVIQLVDVLYNEEKQKMYMVMEYCVCGMQEMLDSVPEKRFPVCQAHGYFRQLIDGLEYLHSQGIVHKDIKPGNLLLTTNGTLKISDLGVAEALHPFAVDDTCRTSQGSPAFQPPEIANGLDTFSGFKVDIWSAGVTLYNITTGLYPFEGDNIYKLFENIGRGDFTIPCDCGPPLSDLLRGMLEYEPAKRFSIRQIRQHSWFRKKHPLAEALVPIPPSPDTKDRWRSMTVVPYLEDLHGRAEEEEEEDLFDIEDGIIYTQDFTVPGQVLEEEVGQNGQSHSLPKAVCVNGTEPQLSSKVKPEGRPGTANPARKVCSSNKIRRLSACKQQ
Turning to B1, the binding entry in assay [1] is on record as “binds”.

B2: Flag-tagged LKB1 (enzyme, UniProt Q9WTK7 1-436)
chain: B1 chain
Take B2: in assay [2], the binding result was “binds”.

B3: His-LKB1 (enzyme, UniProt Q9WTK7 1-436)
chain: B1 chain
For the molecule B3, in assay [3], the binding entry is given as “binds”.

These data come from publication PMC10444762.
